Experimental data: PubChem BioAssay AID540256 (National Center for Advancing Translational Sciences (NCATS), 2011)
Values joined by “and” are separate entries in the source; they are usually repeats but may differ in a detail not shown here. Equal values may be shown once. In all, about 300,000 compounds went through this assay and about 3,700 (1.2%) were called active. The inconclusive results got no clear call from the source; some entries with a clear call stand among them for comparison. Calls come from the whole dose curve; tested in HEK293 cells. A potency beside an inconclusive call is a rough fit, not a confirmed value.

Assay: qHTS for Inhibitors of binding or entry into cells for Lassa Virus; note: nearly all actives have a fitted effect of over 50% in size
Conditions: Lassa virus pseudotype entry inhibition, cell reporter; series mostly up to 37.9 µM
Potency is the fitted concentration of half-maximal effect.

| Compound | Potency |
| --- | --- |
| Cc1cccc(C)c1NC(=O)c1oc2ccc3c(c2c1C)C(=O)CC(C)(C)O3 | inconclusive: 35.5 µM [inhibitor, single point] |
| Cc1cc2oc(C(=O)Nc3c(C(=O)Nc4ccccc4)oc4ccccc34)cc(=O)c2cc1C | inconclusive: 35.5 µM [activator, single point] |
| COc1cc2c(c(OC)c1OC)CC(c1ccccc1)=C(c1ccccc1)CC2NC(=O)C(F)(F)F (stereo not given) | inconclusive: 1.33 µM [inhibitor, single point] |
| Cc1ccccc1C(=O)Nc1ccc(-c2nc3ccc(C(=O)c4ccccc4)cc3[nH]2)cc1 | inconclusive: 17.8 µM [inhibitor, single point] |
| NC(=O)CSc1ncc(-c2ccc([N+](=O)[O-])cc2)[nH]1 | inconclusive: 0.651 µM [activator, full curve, poor fit] |
| O=S(=O)(c1ccc(F)cc1)N1CCC2(CC1)OCCN2S(=O)(=O)c1cccs1 | inconclusive: 22.4 µM [inhibitor, single point] |
| O=C(CSCc1ccccc1Cl)N1CCN(c2ccc(F)cc2)CC1 | inactive |
| Cc1ccc(S(=O)(=O)N2CCN(C(=O)CSc3ncn[nH]3)CC2)c(C)c1 | inconclusive: 1.41 µM [inhibitor, partial curve, poor fit] |
| COc1cc(NC(=O)CC2C(=O)N(c3ccc(Cl)cc3)C(=O)N2Cc2cccs2)cc(OC)c1 (stereo not given) | inconclusive: 11.2 µM [inhibitor, partial curve] |
| Cc1ccc(C(=O)NCc2ccc(N(C)C)cc2)cc1NC(=O)c1nsc2ccccc12 | active: 5.01 µM |
| CC(/C=N/NC(=O)c1nnn(-c2nonc2N)c1CN(C)C)=C\c1ccco1 | inactive |
| CC(=O)Oc1ccc2cc(-c3ccccc3)c(=O)oc2c1 | inconclusive: 5.01 µM [activator, single point] |
| COc1ccc(C2(c3ccc(OC)cc3)NC(=O)N(CC(=O)NC3CCCC3)C2=O)cc1 | inconclusive: 12.6 µM [inhibitor, single point] |
| COC(=O)C1CCC(=O)N1C(c1ccc(OC)cc1)c1cc(OC)c(OC)c(OC)c1 (stereo not given) | inconclusive: 0.562 µM [inhibitor, full curve] |
| CCOC(=O)c1cccc(NC(=O)CN2C(=O)c3ccccc3Sc3ncccc32)c1 | inconclusive: 22.4 µM [inhibitor, single point] |
| CCN(CC)S(=O)(=O)c1ccc2oc(C(=O)NCC3COc4ccccc4O3)c(C)c2c1 (stereo not given) | active: 23.1 µM |
| Cc1ccc(NC(=O)c2sc(Cl)nc2C)c(C)c1 | inactive |
| CCSS(=O)(=O)c1cccc2cccnc12 | inactive |
| CCOC(=O)c1ccc(N2C(=O)c3n[nH]c(C)c3C2c2ccc(OCC)cc2)cc1 (stereo not given) | inconclusive: 12.6 µM [inhibitor, partial curve, poor fit] |
| COc1cccc(NC(=O)c2oc3ccccc3c2NC(=O)C2CC2)c1 | inconclusive: 29.1 µM [inhibitor, single point] |
| Cc1cc(-n2c(C)cc(C(=O)CSc3ncnc4ccccc34)c2C)no1 | inconclusive: 18.3 µM [inhibitor, partial curve, poor fit] |
| CCN(CCNC(=O)C1CCN(Cc2nc(-c3cccc(Cl)c3)oc2C)CC1)c1ccccc1 | inconclusive: 35.5 µM [inhibitor, single point] |

| Compound | Potency |
| --- | --- |
| COc1ccc(NCC(=O)N/N=C/c2c(C)nn(Cc3ccccc3)c2Cl)cc1 | active: 7.94 µM |
| CN(C)CCCN(C(=O)c1ccc(S(=O)(=O)N(C)C2CCCCC2)cc1)c1nc2ccc(F)cc2s1 | inconclusive: 11.2 µM [inhibitor, partial curve, poor fit] |
| CCOC(=O)Cn1c(=O)n(CC2CCCO2)c2nc(-c3ccc(C(C)C)cc3)nc(C(N)=O)c21 (stereo not given) | inconclusive: 3.98 µM [inhibitor, full curve, poor fit] |
| COc1c([N+](=O)[O-])c(=O)oc2ccccc12 | inactive |
| CCOC(=O)c1ccc(N=c2sc(C(=O)OC)cc(=O)n2Cc2ccco2)cc1 | inconclusive: 25.9 µM [inhibitor, single point] |
| Cn1c(=O)c2c(ncn2CC(=O)Nc2nc(-c3ccccc3Cl)cs2)n(C)c1=O | inconclusive: 29.1 µM [inhibitor, single point] |
| C(=N\Nc1ncnc2ccccc12)/c1ccccc1 | inconclusive: 35.5 µM [inhibitor, single point] |
| CCOC(=O)c1sc2nc(C)nc(SCC(=O)N(C)C3CCS(=O)(=O)C3)c2c1C (stereo not given) | inconclusive: 25.9 µM [inhibitor, partial curve, poor fit] |
| Cc1ccc(CNC(=O)c2ccc(N(C)S(=O)(=O)c3ccccc3)cc2)cc1 | inconclusive: 6.31 µM [inhibitor, full curve, poor fit] |
| Cc1noc2ncnc(Sc3ccc(Cl)cc3)c12 | inactive |
| CCN(CC(=O)Nc1ccc(NC(C)=O)cc1)C(=O)c1ccc2c(c1)S(=O)(=O)N=C1CCCCCN12 | inconclusive: 35.5 µM [inhibitor, single point] |
| c1cncc(-c2nnc(-c3cccs3)o2)c1 | inactive |
| COc1ccc(-c2cc(=O)oc3c(C)c(OC(=O)c4cccs4)ccc23)cc1 | inconclusive: 16.4 µM [inhibitor, partial curve] |
| O=S(=O)(Nc1cccc(-c2cn3cccnc3n2)c1)c1ccccc1 | inactive |
| COc1cccc(CN2CCCC(C(=O)Nc3ccc(-c4cscn4)cc3)C2)c1 (stereo not given) | inconclusive: 10 µM [inhibitor, partial curve, poor fit] |
| CN(C(=O)COC(=O)c1cc(Br)c(Br)s1)C1CCS(=O)(=O)C1 (stereo not given) | inconclusive: 31.6 µM [activator, single point] |
| c1ccc(-n2cnc3cc(NCc4ccccn4)ccc32)cc1 | inconclusive: 29.1 µM [inhibitor, single point] |
| Cc1cc(=O)[nH]c(SC/C=C/c2ccccc2)n1 | inconclusive: 0.92 µM [activator, full curve, poor fit] |
| O=C(COC(=O)c1ccc(O)cc1O)N=c1sccn1Cc1ccccc1Cl | inconclusive: 22.4 µM [inhibitor, single point] |
| COc1ccc2cc(C(=O)N3CCN(Cc4ccc5c(c4)OCO5)CC3)[nH]c2c1 | inconclusive: 3.98 µM [inhibitor, full curve, poor fit] |
| COc1ccccc1-n1c(/C=C/c2ccc(O)cc2)nc2ccccc2c1=O | inconclusive: 2.82 µM [inhibitor, full curve] |
| CCN(Cc1ccccc1)C(=O)c1nn(-c2ccc(OC)cc2)c(=O)c2c1c1ccccc1n2C | inconclusive: 7.08 µM [inhibitor, partial curve, poor fit] and inconclusive: 35.5 µM [inhibitor, single point] |

| Compound | Potency |
| --- | --- |
| O=C(N/N=C/c1cn(-c2cccs2)nc1-c1ccccc1)c1ccccc1Br | inactive |
| O=C(Nc1cccc(S(=O)(=O)N2CCOCC2)c1)C12CC3CC(CC(C3)C1)C2 | inactive |
| C=CCN(C(=O)C1CSC2(C)CCC(=O)N12)c1nc(-c2ccccc2)cs1 (stereo not given) | inactive |
| N/C(=N\OS(=O)(=O)c1ccc2ccccc2c1)c1ccccn1 | inactive |
| COc1ccc(CCNC(=O)c2cc(S(=O)(=O)N3CCCCCC3)ccc2OC)cc1OC | inconclusive: 3.55 µM [inhibitor, partial curve, poor fit] |
| COCCNc1oc(-c2cccs2)nc1S(=O)(=O)c1ccc(C)cc1 | inconclusive: 5.62 µM [inhibitor, partial curve, poor fit] |
| O=C(N/N=C/c1ccc([N+](=O)[O-])o1)C1CCCC1 | inconclusive: 10 µM [inhibitor, partial curve, poor fit] |
| O=C(O)CCCCCN1C(=O)/C(=C/c2ccncc2)SC1=S | inactive |
| O=C(NN1C(=O)/C(=C/C=C/c2ccco2)SC1=S)c1ccccc1O | inactive |
| O=C(CSc1nnc(-c2ccc(Br)cc2)o1)Nc1cccc(C(=O)O)c1 | inconclusive: 0.891 µM [inhibitor, full curve, poor fit] |
| Cc1c(C(N)=O)sc2ncn(CC(=O)NCCc3ccccc3)c(=O)c12 | inconclusive: 17.8 µM [activator, single point] |
| NC(=O)c1ccc(NC(=O)COC(=O)c2c3c(nc4ccccc24)/C(=C\c2cccs2)CCC3)cc1 | inconclusive: 23.1 µM [inhibitor, single point] |
| COc1ccc(CC(C)N2CCN(Cc3ccccc3)CC2)c(OC)c1 (stereo not given) | inconclusive: 1.83 µM [inhibitor, partial curve, poor fit] |
| CCOC(=O)/C(N=Nc1c(C)n(C)n(-c2ccccc2)c1=O)=C(\C)O | inactive |
| O=C(NCc1ccc(F)cc1)c1cnc(N2CCCCC2)c2ccccc12 | inconclusive: 35.5 µM [inhibitor, single point] |
| CCN(CC)C(=O)C1CCN(c2nnc(C)c3c(C)n(-c4ccc(Cl)cc4)nc23)CC1 | inactive |
| O=C(NC(=S)Nc1ccc(N2CCCCC2)cc1)c1ccco1 | inactive |
| CCCCn1c(SCC(=O)NC(C)CC)nc2ccc(N3CCOCC3)cc2c1=O (stereo not given) | inactive |
| Cc1ccc(S(=O)(=O)N(CC(=O)N/N=C\c2cccs2)c2cccc3cccnc23)cc1 | inconclusive: 12.6 µM [inhibitor, partial curve, poor fit] |
| Cc1cccc(C(=O)NCC(=O)N2CCN(S(=O)(=O)c3ccccc3)CC2)c1 | inactive |
| Cc1nc2nc(CSc3nnc(C)s3)cc(=O)n2[nH]1 | inconclusive: 8.2 µM [activator, single point] |

By substructure, the compounds so far with an aryl methoxy group

| Compound | Potency |
| --- | --- |
| COc1cc2c(c(OC)c1OC)CC(c1ccccc1)=C(c1ccccc1)CC2NC(=O)C(F)(F)F (stereo not given) | inconclusive: 1.33 µM [inhibitor, single point] |
| COc1cc(NC(=O)CC2C(=O)N(c3ccc(Cl)cc3)C(=O)N2Cc2cccs2)cc(OC)c1 (stereo not given) | inconclusive: 11.2 µM [inhibitor, partial curve] |
| COc1ccc(C2(c3ccc(OC)cc3)NC(=O)N(CC(=O)NC3CCCC3)C2=O)cc1 | inconclusive: 12.6 µM [inhibitor, single point] |
| COC(=O)C1CCC(=O)N1C(c1ccc(OC)cc1)c1cc(OC)c(OC)c(OC)c1 (stereo not given) | inconclusive: 0.562 µM [inhibitor, full curve] |
| COc1cccc(NC(=O)c2oc3ccccc3c2NC(=O)C2CC2)c1 | inconclusive: 29.1 µM [inhibitor, single point] |
| COc1ccc(NCC(=O)N/N=C/c2c(C)nn(Cc3ccccc3)c2Cl)cc1 | active: 7.94 µM |
| COc1c([N+](=O)[O-])c(=O)oc2ccccc12 | inactive |
| COc1ccc(-c2cc(=O)oc3c(C)c(OC(=O)c4cccs4)ccc23)cc1 | inconclusive: 16.4 µM [inhibitor, partial curve] |
| COc1cccc(CN2CCCC(C(=O)Nc3ccc(-c4cscn4)cc3)C2)c1 (stereo not given) | inconclusive: 10 µM [inhibitor, partial curve, poor fit] |
| COc1ccc2cc(C(=O)N3CCN(Cc4ccc5c(c4)OCO5)CC3)[nH]c2c1 | inconclusive: 3.98 µM [inhibitor, full curve, poor fit] |
| COc1ccccc1-n1c(/C=C/c2ccc(O)cc2)nc2ccccc2c1=O | inconclusive: 2.82 µM [inhibitor, full curve] |
| CCN(Cc1ccccc1)C(=O)c1nn(-c2ccc(OC)cc2)c(=O)c2c1c1ccccc1n2C | inconclusive: 7.08 µM [inhibitor, partial curve, poor fit] and inconclusive: 35.5 µM [inhibitor, single point] |
| COc1ccc(CCNC(=O)c2cc(S(=O)(=O)N3CCCCCC3)ccc2OC)cc1OC | inconclusive: 3.55 µM [inhibitor, partial curve, poor fit] |
| COc1ccc(CC(C)N2CCN(Cc3ccccc3)CC2)c(OC)c1 (stereo not given) | inconclusive: 1.83 µM [inhibitor, partial curve, poor fit] |
